Test [1] has as its target T1, GST-NHERF3 (human, UniProt Q5T2W1 1-519).
T1 construct: also called PDZK1; CAP70
T1 sequence (looked up): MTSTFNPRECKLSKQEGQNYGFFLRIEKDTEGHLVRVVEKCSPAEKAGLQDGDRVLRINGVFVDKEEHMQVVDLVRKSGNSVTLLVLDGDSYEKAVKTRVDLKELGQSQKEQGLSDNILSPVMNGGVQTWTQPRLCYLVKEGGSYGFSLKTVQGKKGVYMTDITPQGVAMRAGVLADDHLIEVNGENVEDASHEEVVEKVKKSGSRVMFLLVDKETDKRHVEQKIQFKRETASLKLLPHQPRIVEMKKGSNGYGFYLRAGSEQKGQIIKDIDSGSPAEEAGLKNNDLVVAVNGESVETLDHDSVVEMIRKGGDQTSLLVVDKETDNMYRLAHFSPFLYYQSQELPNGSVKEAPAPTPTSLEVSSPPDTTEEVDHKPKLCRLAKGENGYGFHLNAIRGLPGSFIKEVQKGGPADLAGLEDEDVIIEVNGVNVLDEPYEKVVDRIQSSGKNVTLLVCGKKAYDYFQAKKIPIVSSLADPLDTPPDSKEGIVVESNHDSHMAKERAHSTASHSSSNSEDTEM
As to the kind of experiment: pull-down; 800 nM purified GST-NHERF1-4 or GST mixed with total lysate (1 mg protein) of HEK 293 cells overexpressing GCC, glutathione beads; GCC on the beads read by its cGMP formation (cGMP ELISA); only the target purified. A general note: An ELISA detects its analyte on a solid surface through an enzyme-linked reagent.

Chains of the proteins cited; added tags and fusions are not shown.
UniProt Q15599: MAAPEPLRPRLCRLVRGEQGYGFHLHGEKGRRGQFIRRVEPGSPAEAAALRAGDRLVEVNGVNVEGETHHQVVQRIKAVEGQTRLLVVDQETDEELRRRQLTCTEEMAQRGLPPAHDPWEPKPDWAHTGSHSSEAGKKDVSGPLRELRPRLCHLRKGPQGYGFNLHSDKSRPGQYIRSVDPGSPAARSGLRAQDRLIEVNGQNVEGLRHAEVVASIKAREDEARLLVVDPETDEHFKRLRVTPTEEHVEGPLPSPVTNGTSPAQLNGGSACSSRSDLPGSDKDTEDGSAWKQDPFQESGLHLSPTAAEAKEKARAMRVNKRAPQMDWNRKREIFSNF

For test [2], the target named is T2, GST-NHERF2 (human, UniProt Q15599 1-337).
T2 construct: also called E3KARP; GST-tagged NHERF2
The description is as above.

For test [3], the target named is T3, GST-NHERF4 (human) (UniProt Q86UT5).
T3 sequence: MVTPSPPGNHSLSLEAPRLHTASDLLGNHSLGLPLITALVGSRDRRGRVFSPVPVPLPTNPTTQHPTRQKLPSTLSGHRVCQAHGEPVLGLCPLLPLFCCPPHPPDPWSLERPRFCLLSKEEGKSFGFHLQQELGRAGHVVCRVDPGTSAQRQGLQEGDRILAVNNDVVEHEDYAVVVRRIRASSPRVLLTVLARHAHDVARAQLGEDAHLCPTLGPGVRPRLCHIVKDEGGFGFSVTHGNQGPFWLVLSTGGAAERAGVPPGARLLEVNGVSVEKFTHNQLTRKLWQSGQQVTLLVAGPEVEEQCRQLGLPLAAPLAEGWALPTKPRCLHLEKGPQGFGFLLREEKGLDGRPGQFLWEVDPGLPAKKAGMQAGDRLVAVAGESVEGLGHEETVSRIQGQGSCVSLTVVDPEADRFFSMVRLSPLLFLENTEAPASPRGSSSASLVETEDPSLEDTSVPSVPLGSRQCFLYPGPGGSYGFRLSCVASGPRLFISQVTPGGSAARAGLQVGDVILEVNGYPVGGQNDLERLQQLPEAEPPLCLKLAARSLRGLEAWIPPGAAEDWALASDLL
The test is described as follows: far-Western, overlay or dot blot; dot blot: GST-NHERF1-4 and GST on nitrocellulose, GCCC50 overlaid, probed with in-house anti-GCC rabbit polyclonal antibody; saturating NHERF, > 1.2 pmoles; both purified.

The target of test [4] is FLAG-GCC (human) (UniProt P25092). The test is described as follows: co-IP.
Test [5] has the same target. As to the kind of experiment: co-IP; HEK-293 cells overexpressing FLAG-GCC with HA-NHERF3 or HA-NHERF4, treated with STc (0, 50 and 500 nM) for 30 min; FLAG-GCC immunoprecipitated, anti-HA blot.
The next test deals with T4, GST-His-S-MRP4-C50 (UniProt O15439).
T4 sequence: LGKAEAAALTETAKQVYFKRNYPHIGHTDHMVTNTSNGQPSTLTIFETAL
The test is described as follows: far-Western, overlay or dot blot; slot blot (macromolecular complex assay): GST-His-S-MRP4-C50 (0, 5 and 20 ug) and GST alone on nitrocellulose, 5 ug GST-NHERF3 overnight at 4 C, then 0.5 ug purified Flag-GCC-C50 at 4 C; detected with a GCC C-terminal specific antibody; both purified.

The target of test [6] is T3, GST-NHERF4 (human). The test is described as follows: far-Western, overlay or dot blot; dot blot: GST-NHERF1-4 and GST on nitrocellulose, MRP4C50 overlaid, detected with S-protein HRP conjugate; both purified.
Test [7] has as its target T1, GST-NHERF3. Described as above.
In test [8] the target is T2, GST-NHERF2. Described as above.

Among the data in paper PMC12510010 (The Journal of Biological Chemistry, 2025) are binding values, retold here.

No constants are given. Whether binding was seen depends on the method and setting. For part of these data: In cells and extracts the contact can be indirect. Some entries that bind do so weakly or less than the wild type. For part of these data: Sequences can lack the tags named with a protein.

Take “HA-GCC (from UniProt P25092 24-1073) (receptor)”: the binding result with GST-NHERF3 [1] and with GST-NHERF2 [2] was “binds” in each case.

B1: C-terminal 50 amino acids of GCC (GCCC50) (domain or fragment, human, UniProt P25092 1024-1073, looked up)
chain: AEFSDMIANSLQKRQAAGIRSQKPRRVASYKKGTLEYLQLNTTDKESTYF
As to B1, the binding entry in the test with GST-NHERF4 (human) [3] was “binds”.

B2: GST-NHERF4 (natural protein, human, UniProt Q86UT5 1-571, looked up)
chain: MVTPSPPGNHSLSLEAPRLHTASDLLGNHSLGLPLITALVGSRDRRGRVFSPVPVPLPTNPTTQHPTRQKLPSTLSGHRVCQAHGEPVLGLCPLLPLFCCPPHPPDPWSLERPRFCLLSKEEGKSFGFHLQQELGRAGHVVCRVDPGTSAQRQGLQEGDRILAVNNDVVEHEDYAVVVRRIRASSPRVLLTVLARHAHDVARAQLGEDAHLCPTLGPGVRPRLCHIVKDEGGFGFSVTHGNQGPFWLVLSTGGAAERAGVPPGARLLEVNGVSVEKFTHNQLTRKLWQSGQQVTLLVAGPEVEEQCRQLGLPLAAPLAEGWALPTKPRCLHLEKGPQGFGFLLREEKGLDGRPGQFLWEVDPGLPAKKAGMQAGDRLVAVAGESVEGLGHEETVSRIQGQGSCVSLTVVDPEADRFFSMVRLSPLLFLENTEAPASPRGSSSASLVETEDPSLEDTSVPSVPLGSRQCFLYPGPGGSYGFRLSCVASGPRLFISQVTPGGSAARAGLQVGDVILEVNGYPVGGQNDLERLQQLPEAEPPLCLKLAARSLRGLEAWIPPGAAEDWALASDLL
In the case of B2, the binding entry in the test with FLAG-GCC (human) [4] is “binds”.

B3: HA-NHERF3 (protein, UniProt Q5T2W1 1-519)
chain: MTSTFNPRECKLSKQEGQNYGFFLRIEKDTEGHLVRVVEKCSPAEKAGLQDGDRVLRINGVFVDKEEHMQVVDLVRKSGNSVTLLVLDGDSYEKAVKTRVDLKELGQSQKEQGLSDNILSPVMNGGVQTWTQPRLCYLVKEGGSYGFSLKTVQGKKGVYMTDITPQGVAMRAGVLADDHLIEVNGENVEDASHEEVVEKVKKSGSRVMFLLVDKETDKRHVEQKIQFKRETASLKLLPHQPRIVEMKKGSNGYGFYLRAGSEQKGQIIKDIDSGSPAEEAGLKNNDLVVAVNGESVETLDHDSVVEMIRKGGDQTSLLVVDKETDNMYRLAHFSPFLYYQSQELPNGSVKEAPAPTPTSLEVSSPPDTTEEVDHKPKLCRLAKGENGYGFHLNAIRGLPGSFIKEVQKGGPADLAGLEDEDVIIEVNGVNVLDEPYEKVVDRIQSSGKNVTLLVCGKKAYDYFQAKKIPIVSSLADPLDTPPDSKEGIVVESNHDSHMAKERAHSTASHSSSNSEDTEM
As to B3, the binding entry with FLAG-GCC (human) [5] is recorded as “binds”.

B4: GST-NHERF3 (protein, UniProt Q5T2W1 1-519)
chain: MTSTFNPRECKLSKQEGQNYGFFLRIEKDTEGHLVRVVEKCSPAEKAGLQDGDRVLRINGVFVDKEEHMQVVDLVRKSGNSVTLLVLDGDSYEKAVKTRVDLKELGQSQKEQGLSDNILSPVMNGGVQTWTQPRLCYLVKEGGSYGFSLKTVQGKKGVYMTDITPQGVAMRAGVLADDHLIEVNGENVEDASHEEVVEKVKKSGSRVMFLLVDKETDKRHVEQKIQFKRETASLKLLPHQPRIVEMKKGSNGYGFYLRAGSEQKGQIIKDIDSGSPAEEAGLKNNDLVVAVNGESVETLDHDSVVEMIRKGGDQTSLLVVDKETDNMYRLAHFSPFLYYQSQELPNGSVKEAPAPTPTSLEVSSPPDTTEEVDHKPKLCRLAKGENGYGFHLNAIRGLPGSFIKEVQKGGPADLAGLEDEDVIIEVNGVNVLDEPYEKVVDRIQSSGKNVTLLVCGKKAYDYFQAKKIPIVSSLADPLDTPPDSKEGIVVESNHDSHMAKERAHSTASHSSSNSEDTEM
On to B4, for which the binding entry in the test with GST-His-S-MRP4-C50 is “binds”.

B5: GST-His-S-MRP4-C50 (domain or fragment, UniProt O15439 1276-1325)
chain: LGKAEAAALTETAKQVYFKRNYPHIGHTDHMVTNTSNGQPSTLTIFETAL
Turning to B5, the binding entry in the test with GST-NHERF4 (human) [6], with GST-NHERF3 [7] and with GST-NHERF2 [8] was “binds” throughout.
